Results taken from paper PMC4058850, “The Bifunctional Pyruvate Decarboxylase/Pyruvate Ferredoxin Oxidoreductase from Thermococcus guaymasensis” (Archaea, 2014).
These are yes or no findings as the source states them, for the method shown. A result given as binding can be weak or reduced; the word gives no strength.

Molecular target: PorA subunit of the pyruvate ferredoxin oxidoreductase from Thermococcus guaymasensis (Thermococcus guaymasensis (endogenous in DSM 11113))
Experiment: SEC; native enzyme purified from T. guaymasensis (about 1 mg) on HiLoad Superdex-200 in buffer E (50 mM Tris pH 7.8, 5% glycerol, 100 mM KCl, 2 mM DTT, 2 mM SDT), 2.5 mL/min, calibrated with protein standards; SDS-PAGE of the enzyme after the column; apparent Mr 258,000; both purified

B1: PorD subunit of the pyruvate ferredoxin oxidoreductase from Thermococcus guaymasensis (protein, UniProt W8CR61 1-105)
chain: MAESPFKADIERVQKEYSEKMTPGAIAYIPGSSVINKTGSWRVFMPEFNREKCTRCYLCYIYCPEPAIYLDEEGYPVFDYDYCKGCGVCANECPVGAIVMVRETK
- binding: binds
